The record followed here is publication PMC3665532.

The experiment has as its target T1, potassium-chloride cotransporter 3 (KCC3), wild type, transiently expressed (UniProt Q9UHW9).
T1 sequence: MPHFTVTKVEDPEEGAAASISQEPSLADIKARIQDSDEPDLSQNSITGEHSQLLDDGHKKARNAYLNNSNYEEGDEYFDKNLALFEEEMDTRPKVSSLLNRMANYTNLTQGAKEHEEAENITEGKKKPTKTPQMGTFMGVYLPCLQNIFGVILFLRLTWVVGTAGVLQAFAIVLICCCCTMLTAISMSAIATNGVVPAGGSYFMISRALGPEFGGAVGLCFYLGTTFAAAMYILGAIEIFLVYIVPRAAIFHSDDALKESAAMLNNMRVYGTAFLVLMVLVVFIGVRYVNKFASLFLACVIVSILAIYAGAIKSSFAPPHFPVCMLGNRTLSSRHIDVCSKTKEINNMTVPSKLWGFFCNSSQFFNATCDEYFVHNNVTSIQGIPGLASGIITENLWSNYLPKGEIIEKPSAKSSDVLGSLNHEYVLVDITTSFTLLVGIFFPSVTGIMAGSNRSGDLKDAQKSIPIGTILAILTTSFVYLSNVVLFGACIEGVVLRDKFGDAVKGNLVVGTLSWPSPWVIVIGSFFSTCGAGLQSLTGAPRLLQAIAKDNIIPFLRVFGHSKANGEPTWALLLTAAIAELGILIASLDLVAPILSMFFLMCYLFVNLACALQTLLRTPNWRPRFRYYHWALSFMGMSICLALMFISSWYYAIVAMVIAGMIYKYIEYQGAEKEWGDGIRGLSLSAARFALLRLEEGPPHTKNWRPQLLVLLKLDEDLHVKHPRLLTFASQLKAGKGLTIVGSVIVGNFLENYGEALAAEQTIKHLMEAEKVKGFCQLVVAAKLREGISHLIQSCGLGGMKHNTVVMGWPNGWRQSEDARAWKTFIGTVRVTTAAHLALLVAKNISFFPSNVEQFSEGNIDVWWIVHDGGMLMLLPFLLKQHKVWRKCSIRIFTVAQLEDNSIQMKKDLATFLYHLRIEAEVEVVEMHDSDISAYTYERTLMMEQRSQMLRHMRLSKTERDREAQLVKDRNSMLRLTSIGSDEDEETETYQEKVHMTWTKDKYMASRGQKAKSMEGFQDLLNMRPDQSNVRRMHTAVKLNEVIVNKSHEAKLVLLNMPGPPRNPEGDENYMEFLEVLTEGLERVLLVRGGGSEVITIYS
In words: co-IP; HeLa cells transiently expressing KCC3 forms, lysed in RIPA buffer; magnetic beads coupled with KCC3 antibody; precipitate probed with Vav2 antibody.

Results are given in words; binding and its absence hold for the method and conditions named. Binding seen in cells or lysates may run through a third protein. Some results given as binding are weak or reduced against the parent protein; the word gives no strength.

B1: Vav2 (guanine nucleotide exchange factor), endogenous in HeLa cells (protein, UniProt P52735 1-878)
chain: MEQWRQCGRWLIDCKVLPPNHRVVWPSAVVFDLAQALRDGVLLCQLLHNLSPGSIDLKDINFRPQMSQFLCLKNIRTFLKVCHDKFGLRNSELFDPFDLFDVRDFGKVISAVSRLSLHSIAQNKGIRPFPSEETTENDDDVYRSLEELADEHDLGEDIYDCVPCEDGGDDIYEDIIKVEVQQPMIRYMQKMGMTEDDKRNCCLLEIQETEAKYYRTLEDIEKNYMSPLRLVLSPADMAAVFINLEDLIKVHHSFLRAIDVSVMVGGSTLAKVFLDFKERLLIYGEYCSHMEHAQNTLNQLLASREDFRQKVEECTLKVQDGKFKLQDLLVVPMQRVLKYHLLLKELLSHSAERPERQQLKEALEAMQDLAMYINEVKRDKETLRKISEFQSSIENLQVKLEEFGRPKIDGELKVRSIVNHTKQDRYLFLFDKVVIVCKRKGYSYELKEIIELLFHKMTDDPMNNKDVKKSHGKMWSYGFYLIHLQGKQGFQFFCKTEDMKRKWMEQFEMAMSNIKPDKANANHHSFQMYTFDKTTNCKACKMFLRGTFYQGYMCTKCGVGAHKECLEVIPPCKFTSPADLDASGAGPGPKMVAMQNYHGNPAPPGKPVLTFQTGDVLELLRGDPESPWWEGRLVQTRKSGYFPSSSVKPCPVDGRPPISRPPSREIDYTAYPWFAGNMERQQTDNLLKSHASGTYLIRERPAEAERFAISIKFNDEVKHIKVVEKDNWIHITEAKKFDSLLELVEYYQCHSLKESFKQLDTTLKYPYKSRERSASRASSRSPASCASYNFSFLSPQGLSFASQGPSAPFWSVFTPRVIGTAVARYNFAARDMRELSLREGDVVRIYSRIGGDQGWWKGETNGRIGWFPSTYVEEEGIQ
Regarding B1, the binding result was “binds”.
